Read-outs that look alike come from different tables or passages of the source. These are yes or no findings as the source states them, for the method shown. In cells and extracts the contact can be indirect. Some binding calls cover weakened binding; strength is not graded here. For some assays here: Tags and fused reporters may be left off the sequences shown.
What was measured:
[1] = molecular target: myc-tagged DDX17 (human) (UniProt Q92841); assay: co-IP; HEK293T cells co-transfected with tagged proteins (two or three together), harvested 48 or 72 h post transfection in RIPA buffer; anti-V5, anti-HA, anti-myc or anti-FLAG beads, overnight; four washes with RIPA; eluted with competitive peptide and with Laemmli buffer; Western blot
[2] = molecular target: T1, V5-tagged KSHV viral serine/threonine protein kinase (vPK), encoded by ORF36 (Kaposi's sarcoma-associated herpesvirus (KSHV)) (UniProt F5HGH5); assay: as above
T1 sequence: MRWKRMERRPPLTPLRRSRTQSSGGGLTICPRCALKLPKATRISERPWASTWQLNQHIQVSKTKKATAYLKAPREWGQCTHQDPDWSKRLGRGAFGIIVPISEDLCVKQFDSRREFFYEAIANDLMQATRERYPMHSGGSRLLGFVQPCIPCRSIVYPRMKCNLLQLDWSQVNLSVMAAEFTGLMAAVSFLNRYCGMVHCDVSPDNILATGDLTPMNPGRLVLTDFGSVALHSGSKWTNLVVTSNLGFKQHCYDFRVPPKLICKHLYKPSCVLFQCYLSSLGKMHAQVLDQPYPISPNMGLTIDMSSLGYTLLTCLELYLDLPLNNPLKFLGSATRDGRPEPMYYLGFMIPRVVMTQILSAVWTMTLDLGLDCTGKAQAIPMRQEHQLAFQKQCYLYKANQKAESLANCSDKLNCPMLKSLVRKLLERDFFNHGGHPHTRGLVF

The chains behind the UniProt entries cited, without tags or fusion partners.
UniProt Q92841: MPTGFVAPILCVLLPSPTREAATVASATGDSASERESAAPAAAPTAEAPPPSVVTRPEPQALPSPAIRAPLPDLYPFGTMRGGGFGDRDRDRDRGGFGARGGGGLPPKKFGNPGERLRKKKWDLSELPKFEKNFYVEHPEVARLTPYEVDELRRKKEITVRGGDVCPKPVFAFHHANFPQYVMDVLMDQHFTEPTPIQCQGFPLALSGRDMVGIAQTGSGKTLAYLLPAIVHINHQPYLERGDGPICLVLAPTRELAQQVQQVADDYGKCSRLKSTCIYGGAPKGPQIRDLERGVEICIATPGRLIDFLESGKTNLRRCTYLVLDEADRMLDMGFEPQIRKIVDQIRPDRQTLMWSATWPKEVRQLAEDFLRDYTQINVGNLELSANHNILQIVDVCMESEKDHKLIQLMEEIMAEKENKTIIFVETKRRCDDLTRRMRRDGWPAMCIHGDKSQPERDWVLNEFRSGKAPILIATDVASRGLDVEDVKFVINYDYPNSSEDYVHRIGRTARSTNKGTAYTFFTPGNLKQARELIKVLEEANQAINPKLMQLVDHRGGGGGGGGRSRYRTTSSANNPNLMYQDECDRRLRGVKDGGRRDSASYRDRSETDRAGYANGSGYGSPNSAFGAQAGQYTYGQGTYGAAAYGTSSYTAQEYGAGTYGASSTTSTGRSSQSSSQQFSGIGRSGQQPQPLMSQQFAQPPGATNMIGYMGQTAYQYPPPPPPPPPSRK
UniProt P17844: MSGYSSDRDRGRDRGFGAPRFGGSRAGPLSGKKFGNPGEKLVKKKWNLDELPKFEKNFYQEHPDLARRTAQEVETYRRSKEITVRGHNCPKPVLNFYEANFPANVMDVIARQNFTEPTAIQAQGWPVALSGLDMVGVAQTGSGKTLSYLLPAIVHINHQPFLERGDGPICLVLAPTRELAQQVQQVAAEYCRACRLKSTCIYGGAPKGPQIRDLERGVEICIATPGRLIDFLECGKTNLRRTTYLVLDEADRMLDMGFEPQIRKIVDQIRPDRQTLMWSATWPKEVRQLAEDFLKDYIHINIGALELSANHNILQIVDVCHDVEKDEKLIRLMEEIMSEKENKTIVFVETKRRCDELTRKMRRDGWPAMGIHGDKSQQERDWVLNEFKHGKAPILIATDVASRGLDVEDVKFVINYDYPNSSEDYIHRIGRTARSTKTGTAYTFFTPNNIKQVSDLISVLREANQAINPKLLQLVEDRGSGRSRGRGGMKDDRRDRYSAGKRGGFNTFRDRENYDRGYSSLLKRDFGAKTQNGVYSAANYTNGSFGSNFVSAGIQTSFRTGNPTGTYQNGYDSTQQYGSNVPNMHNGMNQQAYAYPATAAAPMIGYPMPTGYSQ

[3] = molecular target: T2, 3X-FLAG tagged EBV BGLF4 (Epstein-Barr virus (EBV)) (UniProt P13288); assay: as above
T2 sequence: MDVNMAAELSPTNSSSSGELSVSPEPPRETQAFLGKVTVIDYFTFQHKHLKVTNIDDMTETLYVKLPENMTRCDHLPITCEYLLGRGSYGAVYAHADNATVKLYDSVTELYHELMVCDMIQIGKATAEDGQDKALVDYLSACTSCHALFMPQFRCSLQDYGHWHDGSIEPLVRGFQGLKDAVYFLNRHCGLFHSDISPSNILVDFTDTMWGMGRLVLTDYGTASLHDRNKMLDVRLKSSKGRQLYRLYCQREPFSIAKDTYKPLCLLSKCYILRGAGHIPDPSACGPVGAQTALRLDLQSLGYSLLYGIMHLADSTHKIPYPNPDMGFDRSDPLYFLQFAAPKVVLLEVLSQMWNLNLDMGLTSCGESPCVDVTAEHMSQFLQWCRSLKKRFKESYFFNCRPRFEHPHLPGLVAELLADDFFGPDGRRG

[4] = molecular target: T3, V5-tagged KSHV vPK expressed in KSHV-infected cells (Kaposi's sarcoma-associated herpesvirus (KSHV)) (UniProt F5HGH5); assay: co-IP; V5-vPK transfected into iSLK.219 and 293T.219 cells latently infected with KSHV, lytic reactivation induced; IP with anti-V5 agarose; blot for endogenous DDX5 and DDX17 (n=1)
T3 sequence: T1 sequence

[5] = molecular target: HA-tagged DDX5 (human) (UniProt P17844); assay: co-IP; HEK293T cells co-transfected with tagged proteins (two or three together), harvested 48 or 72 h post transfection in RIPA buffer; anti-V5, anti-HA, anti-myc or anti-FLAG beads, overnight; four washes with RIPA; eluted with competitive peptide and with Laemmli buffer; Western blot
[6] = molecular target: HA-tagged DDX5 (human) (UniProt P17844); assay: as above; remark: listed apart in the source
[7] = molecular target: myc-tagged DDX17 (human) (UniProt Q92841); assay: as above; remark: listed apart in the source
[8] = molecular target: myc-tagged DDX5 (human) (UniProt P17844); assay: as above

## HA-tagged DDX5 (from UniProt P17844 1-614)
[1]
  binding: binds
[2]
  binding: binds
[3]
  binding: binds

## endogenous DDX5 (from UniProt P17844 1-614)
[4]
  binding: binds

## endogenous DDX17 (from UniProt Q92841 1-729)
[4]
  binding: binds

## myc-tagged DDX5 (from UniProt P17844 1-614)
[2]
  binding: binds

## myc-tagged DDX17 (from UniProt Q92841 1-729)
[5]
  binding: binds
[2]
  binding: binds
[3]
  binding: binds

B1: 3X-FLAG tagged EBV BGLF4 (protein, UniProt P13288 1-429)
chain: T2 sequence
[6]
  binding: binds
[7]
  binding: binds

B2: V5-tagged KSHV viral serine/threonine protein kinase (vPK), encoded by ORF36 (protein, UniProt F5HGH5 1-444)
chain: T1 sequence
[8]
  binding: binds
[6]
  binding: binds
[7]
  binding: binds

Source: paper PMC12011273
